Literature values in patent publication US20100135984A1, “Anti-inflammatory compositions and methods” (Searete LLC, a limited liability corporation of the State …, priority 2008, published 2010).
At least one structure is not confirmed: it was looked up by name or label, or the drawing left a doubt.

CCN(CC)C(=S)S [Diethyldithiocarbamate]
toxic: toxicity to Giardia (Giardia) | toxicity to malarial parasites (malarial parasites) | toxicity to Leishmania (Leishmania)
